The list shows a part of the results. Most values lie at the level of the controls, where differences are scatter.

The chains behind the UniProt entries cited, without tags or fusion partners. Where a name states a change or a piece, a line headed by the entry shows the natural chain unless it says otherwise.
UniProt Q9ESE1: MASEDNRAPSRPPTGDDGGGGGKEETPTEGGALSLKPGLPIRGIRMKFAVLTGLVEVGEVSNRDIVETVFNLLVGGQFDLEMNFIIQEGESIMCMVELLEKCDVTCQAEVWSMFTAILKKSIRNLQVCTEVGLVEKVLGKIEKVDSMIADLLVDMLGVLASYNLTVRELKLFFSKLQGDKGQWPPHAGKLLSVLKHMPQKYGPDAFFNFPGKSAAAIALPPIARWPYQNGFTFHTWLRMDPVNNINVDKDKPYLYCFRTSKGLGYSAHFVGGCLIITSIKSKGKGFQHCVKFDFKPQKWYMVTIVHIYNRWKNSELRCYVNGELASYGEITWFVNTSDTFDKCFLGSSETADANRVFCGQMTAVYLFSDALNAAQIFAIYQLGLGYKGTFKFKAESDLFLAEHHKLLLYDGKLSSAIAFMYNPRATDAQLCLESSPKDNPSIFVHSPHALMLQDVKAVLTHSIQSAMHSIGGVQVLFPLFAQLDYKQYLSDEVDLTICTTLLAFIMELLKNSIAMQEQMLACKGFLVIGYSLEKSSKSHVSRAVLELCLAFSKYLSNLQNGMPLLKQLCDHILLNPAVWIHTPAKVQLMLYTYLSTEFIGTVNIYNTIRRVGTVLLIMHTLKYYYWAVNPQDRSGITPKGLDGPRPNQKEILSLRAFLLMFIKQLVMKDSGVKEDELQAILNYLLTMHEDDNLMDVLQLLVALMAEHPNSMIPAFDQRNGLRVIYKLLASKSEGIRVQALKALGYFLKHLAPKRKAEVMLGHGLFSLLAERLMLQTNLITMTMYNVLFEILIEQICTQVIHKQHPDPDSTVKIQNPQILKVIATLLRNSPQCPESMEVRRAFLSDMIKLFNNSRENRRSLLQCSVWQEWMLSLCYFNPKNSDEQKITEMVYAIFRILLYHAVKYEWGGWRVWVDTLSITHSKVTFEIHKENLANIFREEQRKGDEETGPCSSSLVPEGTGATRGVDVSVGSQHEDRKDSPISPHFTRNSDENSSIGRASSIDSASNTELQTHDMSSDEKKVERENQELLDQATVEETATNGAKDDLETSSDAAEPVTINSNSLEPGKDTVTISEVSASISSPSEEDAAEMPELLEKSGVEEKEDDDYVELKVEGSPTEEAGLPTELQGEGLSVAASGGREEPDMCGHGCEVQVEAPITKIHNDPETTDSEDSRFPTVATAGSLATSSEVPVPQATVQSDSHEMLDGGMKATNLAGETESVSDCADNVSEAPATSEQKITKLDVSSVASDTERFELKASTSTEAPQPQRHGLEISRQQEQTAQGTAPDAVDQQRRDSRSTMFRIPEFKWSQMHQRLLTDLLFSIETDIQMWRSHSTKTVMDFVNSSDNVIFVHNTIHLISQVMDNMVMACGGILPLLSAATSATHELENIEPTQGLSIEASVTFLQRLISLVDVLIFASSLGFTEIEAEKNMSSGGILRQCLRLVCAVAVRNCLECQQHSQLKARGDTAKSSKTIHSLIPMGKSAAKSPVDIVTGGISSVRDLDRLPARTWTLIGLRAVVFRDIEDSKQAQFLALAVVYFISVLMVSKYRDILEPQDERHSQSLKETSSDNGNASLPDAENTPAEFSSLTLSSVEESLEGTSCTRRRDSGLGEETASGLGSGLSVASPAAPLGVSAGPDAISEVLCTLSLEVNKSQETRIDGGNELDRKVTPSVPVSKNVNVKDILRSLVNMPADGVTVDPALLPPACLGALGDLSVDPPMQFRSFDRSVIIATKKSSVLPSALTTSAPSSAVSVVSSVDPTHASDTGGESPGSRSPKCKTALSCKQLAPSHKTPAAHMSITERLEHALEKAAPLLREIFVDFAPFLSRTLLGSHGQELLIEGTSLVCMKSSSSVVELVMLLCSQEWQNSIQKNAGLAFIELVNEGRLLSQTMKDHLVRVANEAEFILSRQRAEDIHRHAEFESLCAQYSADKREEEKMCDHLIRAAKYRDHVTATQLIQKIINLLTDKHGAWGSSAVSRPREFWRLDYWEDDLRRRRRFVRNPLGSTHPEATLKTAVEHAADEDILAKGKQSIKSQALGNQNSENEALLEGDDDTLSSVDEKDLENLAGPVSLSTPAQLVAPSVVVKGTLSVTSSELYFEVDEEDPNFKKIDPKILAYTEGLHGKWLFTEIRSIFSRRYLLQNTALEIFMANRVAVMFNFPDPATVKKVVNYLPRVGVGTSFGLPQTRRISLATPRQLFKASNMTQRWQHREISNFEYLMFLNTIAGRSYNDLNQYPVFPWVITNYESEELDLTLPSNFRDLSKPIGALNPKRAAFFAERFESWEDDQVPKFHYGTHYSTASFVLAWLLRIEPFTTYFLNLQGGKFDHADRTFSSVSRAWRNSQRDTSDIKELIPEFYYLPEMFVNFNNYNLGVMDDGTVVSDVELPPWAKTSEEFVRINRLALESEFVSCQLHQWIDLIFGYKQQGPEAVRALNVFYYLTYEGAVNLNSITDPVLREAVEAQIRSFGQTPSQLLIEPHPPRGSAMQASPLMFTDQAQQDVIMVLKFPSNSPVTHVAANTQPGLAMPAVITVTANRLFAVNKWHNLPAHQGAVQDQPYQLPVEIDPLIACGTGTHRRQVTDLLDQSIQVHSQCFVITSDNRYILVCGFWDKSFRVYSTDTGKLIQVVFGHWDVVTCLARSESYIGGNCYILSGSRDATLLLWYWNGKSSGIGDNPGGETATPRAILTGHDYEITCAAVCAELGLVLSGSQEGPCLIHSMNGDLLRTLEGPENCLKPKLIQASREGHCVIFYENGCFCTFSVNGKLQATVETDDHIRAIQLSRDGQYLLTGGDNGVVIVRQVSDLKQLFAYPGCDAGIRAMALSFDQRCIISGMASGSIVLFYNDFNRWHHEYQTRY
UniProt Q9JMG1: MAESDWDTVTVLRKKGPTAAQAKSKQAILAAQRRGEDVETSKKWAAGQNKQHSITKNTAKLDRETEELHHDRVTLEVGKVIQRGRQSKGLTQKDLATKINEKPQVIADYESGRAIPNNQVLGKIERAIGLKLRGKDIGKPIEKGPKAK
UniProt Q9JKC7: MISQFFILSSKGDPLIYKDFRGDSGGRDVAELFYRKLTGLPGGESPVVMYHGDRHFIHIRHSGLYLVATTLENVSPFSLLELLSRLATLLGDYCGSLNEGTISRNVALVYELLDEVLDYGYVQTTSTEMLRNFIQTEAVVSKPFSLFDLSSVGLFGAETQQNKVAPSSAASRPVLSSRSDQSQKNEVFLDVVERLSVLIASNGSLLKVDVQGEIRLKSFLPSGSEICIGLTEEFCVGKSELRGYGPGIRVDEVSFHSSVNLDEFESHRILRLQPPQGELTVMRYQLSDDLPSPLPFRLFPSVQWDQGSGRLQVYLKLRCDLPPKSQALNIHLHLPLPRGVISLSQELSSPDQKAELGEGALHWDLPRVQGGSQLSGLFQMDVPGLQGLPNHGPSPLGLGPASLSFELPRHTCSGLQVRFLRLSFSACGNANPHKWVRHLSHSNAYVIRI
UniProt Q9JM05: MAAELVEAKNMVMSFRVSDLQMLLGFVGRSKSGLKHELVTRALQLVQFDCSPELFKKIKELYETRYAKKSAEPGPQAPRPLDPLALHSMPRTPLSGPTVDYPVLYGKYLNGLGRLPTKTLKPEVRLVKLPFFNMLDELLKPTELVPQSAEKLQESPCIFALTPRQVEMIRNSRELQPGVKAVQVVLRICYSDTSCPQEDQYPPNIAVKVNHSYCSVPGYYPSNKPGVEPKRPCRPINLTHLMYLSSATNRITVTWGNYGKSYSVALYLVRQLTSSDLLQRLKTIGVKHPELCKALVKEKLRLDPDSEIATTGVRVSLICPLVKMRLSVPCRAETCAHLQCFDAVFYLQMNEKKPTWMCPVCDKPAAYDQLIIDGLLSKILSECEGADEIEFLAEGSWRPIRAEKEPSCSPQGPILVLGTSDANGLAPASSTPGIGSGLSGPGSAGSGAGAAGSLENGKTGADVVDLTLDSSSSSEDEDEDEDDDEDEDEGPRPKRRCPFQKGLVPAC
UniProt Q9JHN8: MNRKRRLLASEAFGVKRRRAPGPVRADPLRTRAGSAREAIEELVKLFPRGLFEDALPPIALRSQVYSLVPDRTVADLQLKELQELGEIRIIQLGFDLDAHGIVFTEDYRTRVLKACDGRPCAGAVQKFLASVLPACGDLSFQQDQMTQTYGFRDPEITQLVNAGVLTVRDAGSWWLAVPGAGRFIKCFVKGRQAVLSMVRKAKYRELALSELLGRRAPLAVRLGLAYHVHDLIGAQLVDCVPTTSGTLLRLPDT

The text below walks through data of the supplement of paper PMC12819154, “High-throughput peptide-centric local stability assay extends protein–ligand identification to membrane proteins, tissues and bacteria” (Nature Structural & Molecular Biology, 2025).

Compound in the assay: CN[C@@H]1C[C@H]2O[C@@](C)([C@@H]1OC)n1c3ccccc3c3c4c(c5c6ccccc6n2c5c31)C(=O)NC4 [staurosporine]
Nature of the assay: log2 fold change of tryptic peptide abundance, ligand vs vehicle (limited proteolysis) (log2 ratio); higher = more trypsin-susceptible (destabilized). The conditions noted are these: ligand concentration: 20 uM; sample: mouse liver crude lysate; replicate design: treated separately.
In the case of “UniProt Q9ESE1 (peptide sequence: LLSQTMKDHLVR, peptide start residue: 1887)”, the log2 fold change was 0.255.

Take “UniProt Q9JMG1 (peptide sequence: DIGKPIEKGPK, peptide start residue: 136)”: the log2 fold change stood at 0.0934.

On to “UniProt Q9JKC7 (peptide sequence: VAPSSAASRPVLSSR, peptide start residue: 164)”, for which the log2 fold change was -0.119.

As to “UniProt Q9JM05 (peptide sequence: PLDPLALHSMPR, peptide start residue: 80)”, the log2 fold change is 0.612.

As to “UniProt Q9JHN8 (peptide sequence: ELALSELLGR, peptide start residue: 206)”, the log2 fold change worked out at 0.207.
